{"source": "paper doi:10.1101/2021.04.27.441574", "binders": {"B1": {"name": "aerobic glycerol 3-phosphate dehydrogenase (GlpD) (enzyme, UniProt P13035 1-501)", "chain": "METKDLIVIGGGINGAGIAADAAGRGLSVLMLEAQDLACATSSASSKLIHGGLRYLEHYEFRLVSEALAEREVLLKMAPHIAFPMRFRLPHRPHLRPAWMIRIGLFMYDHLGKRTSLPGSTGLRFGANSVLKPEIKRGFEYSDCWVDDARLVLANAQMVVRKGGEVLTRTRATSARRENGLWIVEAEDIDTGKKYSWQARGLVNATGPWVKQFFDDGMHLPSPYGIRLIKGSHIVVPRVHTQKQAYILQNEDKRIVFVIPWMDEFSIIGTTDVEYKGDPKAVKIEESEINYLLNVYNTHFKKQLSRDDIVWTYSGVRPLCDDESDSPQAITRDYTLDIHDENGKAPLLSVFGGKLTTYRKLAEHALEKLTPYYQGIGPAWTKESVLPGGAIEGDRDDYAARLRRRYPFLTESLARHYARTYGSNSELLLGNAGTVSDLGEDFGHEFYEAELKYLVDHEWVRRADDALWRRTKQGMWLNADQQSRVSQWLVEYTQQRLSLAS"}}, "target": "T1, AzuC-SPA (E. coli) (UniProt C1P605)", "T1 sequence": "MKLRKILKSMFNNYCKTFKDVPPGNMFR", "test": "affinity purification with mass spectrometry", "note": "These are yes or no findings as the source states them, for the method shown. Binding seen in cells or lysates may run through a third protein. These calls come from enrichment with a bait or labelling near it, and not all partners need be listed."}
{"binder": "B1", "values": [{"measurement": "binding", "value": "binds"}]}
